These are yes or no findings as the source states them, for the method shown. In cells and extracts the contact can be indirect. Here binding means that the protein was enriched with, or labelled near, the bait; the list need not be complete. Sequences can lack the tags named with a protein.
T1: NXF-1::3xFLAG::eGFP (C. elegans) (UniProt Q9XVS7)
T1 sequence: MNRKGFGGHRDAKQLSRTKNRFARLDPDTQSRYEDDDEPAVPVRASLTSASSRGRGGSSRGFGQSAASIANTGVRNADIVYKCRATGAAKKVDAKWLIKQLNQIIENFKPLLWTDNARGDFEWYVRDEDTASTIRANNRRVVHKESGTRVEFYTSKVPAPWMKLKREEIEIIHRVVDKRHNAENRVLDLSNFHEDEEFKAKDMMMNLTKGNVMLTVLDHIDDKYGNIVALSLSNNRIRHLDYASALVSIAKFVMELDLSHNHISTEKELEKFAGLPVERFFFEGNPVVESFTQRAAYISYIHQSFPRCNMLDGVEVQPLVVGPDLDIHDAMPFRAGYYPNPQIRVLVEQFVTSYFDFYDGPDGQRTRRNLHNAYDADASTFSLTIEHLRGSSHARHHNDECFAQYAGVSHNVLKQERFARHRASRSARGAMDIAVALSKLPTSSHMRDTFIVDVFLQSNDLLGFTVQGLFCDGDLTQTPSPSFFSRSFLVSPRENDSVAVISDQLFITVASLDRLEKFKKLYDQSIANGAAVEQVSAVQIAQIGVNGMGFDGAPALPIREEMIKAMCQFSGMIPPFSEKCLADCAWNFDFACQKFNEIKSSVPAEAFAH

Chains of the proteins cited; added tags and fusions are not shown. Residues count along the entry.
UniProt P05690, residues 16-1613: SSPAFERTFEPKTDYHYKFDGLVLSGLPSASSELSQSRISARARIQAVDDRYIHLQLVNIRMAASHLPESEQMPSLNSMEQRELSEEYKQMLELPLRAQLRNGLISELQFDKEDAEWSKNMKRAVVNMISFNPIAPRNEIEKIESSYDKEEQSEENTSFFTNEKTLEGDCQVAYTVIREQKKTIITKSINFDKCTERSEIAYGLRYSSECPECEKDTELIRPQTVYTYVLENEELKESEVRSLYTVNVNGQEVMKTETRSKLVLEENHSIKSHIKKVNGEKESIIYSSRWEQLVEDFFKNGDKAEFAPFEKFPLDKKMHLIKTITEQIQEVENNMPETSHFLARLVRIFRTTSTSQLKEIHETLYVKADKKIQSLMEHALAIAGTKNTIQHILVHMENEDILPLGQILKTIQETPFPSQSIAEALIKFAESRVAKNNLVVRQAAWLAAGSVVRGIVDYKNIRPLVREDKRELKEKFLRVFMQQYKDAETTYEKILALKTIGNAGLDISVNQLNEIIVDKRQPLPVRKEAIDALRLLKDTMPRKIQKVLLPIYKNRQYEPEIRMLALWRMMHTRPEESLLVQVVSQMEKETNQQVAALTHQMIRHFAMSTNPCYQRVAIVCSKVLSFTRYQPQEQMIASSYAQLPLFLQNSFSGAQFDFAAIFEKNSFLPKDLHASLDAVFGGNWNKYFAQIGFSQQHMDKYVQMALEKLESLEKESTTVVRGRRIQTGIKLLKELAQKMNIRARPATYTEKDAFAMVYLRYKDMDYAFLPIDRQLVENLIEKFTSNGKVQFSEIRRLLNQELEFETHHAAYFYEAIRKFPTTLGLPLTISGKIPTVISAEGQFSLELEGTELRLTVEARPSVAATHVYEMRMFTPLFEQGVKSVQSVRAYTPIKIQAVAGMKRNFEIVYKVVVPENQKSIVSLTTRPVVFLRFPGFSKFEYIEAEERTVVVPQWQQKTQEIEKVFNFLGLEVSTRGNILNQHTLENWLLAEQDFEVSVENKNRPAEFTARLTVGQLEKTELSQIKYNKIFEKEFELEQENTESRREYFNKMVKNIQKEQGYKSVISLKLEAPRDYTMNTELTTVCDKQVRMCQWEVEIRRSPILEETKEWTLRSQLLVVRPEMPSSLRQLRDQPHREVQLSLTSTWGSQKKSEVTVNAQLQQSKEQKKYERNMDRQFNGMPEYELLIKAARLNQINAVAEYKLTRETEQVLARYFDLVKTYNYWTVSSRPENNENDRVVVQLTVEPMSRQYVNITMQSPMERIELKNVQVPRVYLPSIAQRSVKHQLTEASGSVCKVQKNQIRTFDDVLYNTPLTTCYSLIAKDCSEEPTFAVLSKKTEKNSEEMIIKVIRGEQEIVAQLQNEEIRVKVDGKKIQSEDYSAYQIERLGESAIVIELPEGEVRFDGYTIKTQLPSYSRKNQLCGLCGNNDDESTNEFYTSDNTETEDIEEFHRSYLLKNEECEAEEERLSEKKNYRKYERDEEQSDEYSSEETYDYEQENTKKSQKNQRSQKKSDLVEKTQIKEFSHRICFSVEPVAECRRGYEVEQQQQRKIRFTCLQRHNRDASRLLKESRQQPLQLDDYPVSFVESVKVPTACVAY
UniProt P18947, residues 16-1603: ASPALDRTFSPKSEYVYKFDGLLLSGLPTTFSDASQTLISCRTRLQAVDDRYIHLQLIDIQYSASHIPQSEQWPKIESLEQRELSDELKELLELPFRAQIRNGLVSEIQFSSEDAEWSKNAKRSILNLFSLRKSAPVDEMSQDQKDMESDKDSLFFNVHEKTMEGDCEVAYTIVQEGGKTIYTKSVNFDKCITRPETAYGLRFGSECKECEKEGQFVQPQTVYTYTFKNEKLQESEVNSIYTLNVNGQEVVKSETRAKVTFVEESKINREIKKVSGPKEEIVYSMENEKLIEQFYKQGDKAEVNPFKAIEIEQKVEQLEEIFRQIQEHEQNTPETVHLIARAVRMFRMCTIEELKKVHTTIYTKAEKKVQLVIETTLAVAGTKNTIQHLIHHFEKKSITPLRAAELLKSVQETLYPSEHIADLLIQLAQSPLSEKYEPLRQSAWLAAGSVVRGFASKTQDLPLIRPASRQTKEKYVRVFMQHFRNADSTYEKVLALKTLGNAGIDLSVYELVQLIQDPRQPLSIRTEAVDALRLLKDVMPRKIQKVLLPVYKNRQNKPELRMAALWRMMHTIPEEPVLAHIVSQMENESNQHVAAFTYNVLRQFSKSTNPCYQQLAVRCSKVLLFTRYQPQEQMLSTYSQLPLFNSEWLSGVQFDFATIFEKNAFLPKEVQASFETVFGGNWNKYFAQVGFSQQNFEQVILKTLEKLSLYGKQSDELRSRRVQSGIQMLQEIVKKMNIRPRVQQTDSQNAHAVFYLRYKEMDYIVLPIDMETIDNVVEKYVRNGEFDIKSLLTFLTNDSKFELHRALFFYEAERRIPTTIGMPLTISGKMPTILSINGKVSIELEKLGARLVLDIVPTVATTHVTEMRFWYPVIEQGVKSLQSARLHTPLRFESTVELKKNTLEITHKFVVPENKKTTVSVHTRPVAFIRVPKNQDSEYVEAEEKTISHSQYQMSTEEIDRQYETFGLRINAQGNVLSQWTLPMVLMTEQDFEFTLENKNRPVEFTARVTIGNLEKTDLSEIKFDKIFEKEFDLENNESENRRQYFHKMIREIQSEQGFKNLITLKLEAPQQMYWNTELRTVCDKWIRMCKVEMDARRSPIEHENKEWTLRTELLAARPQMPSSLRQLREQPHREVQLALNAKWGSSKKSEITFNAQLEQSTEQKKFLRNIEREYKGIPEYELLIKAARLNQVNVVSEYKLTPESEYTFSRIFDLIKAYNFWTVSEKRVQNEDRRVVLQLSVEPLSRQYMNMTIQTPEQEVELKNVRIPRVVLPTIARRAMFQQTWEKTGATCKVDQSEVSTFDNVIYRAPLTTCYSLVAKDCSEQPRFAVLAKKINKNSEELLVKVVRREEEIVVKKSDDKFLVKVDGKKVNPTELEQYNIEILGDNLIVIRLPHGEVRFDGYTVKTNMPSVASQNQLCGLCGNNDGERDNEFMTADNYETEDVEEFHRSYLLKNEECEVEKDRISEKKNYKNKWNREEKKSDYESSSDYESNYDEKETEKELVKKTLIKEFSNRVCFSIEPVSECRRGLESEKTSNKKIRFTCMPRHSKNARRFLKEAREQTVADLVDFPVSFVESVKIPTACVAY

B1: NXT-1 (protein, UniProt Q9U757 1-137)
chain: MSMKTTQEINKEDEELCNESKKFMDVYYDVMDRKREKIGFLYTQVSNAVWNGNPINGYDSICEFMKALPSTQHDIQSLDAQRLPEGVTGDMSGGMLLNVAGAVTVDGDSKRAFTQTLLLGVEDGKYKVKSDRFRYVD
B2: RAN-2 (protein, UniProt P34342 1-960)
chain: MLPRLFLTILPVCSPSISNKTSKKFRDAHANHVFLFEMDLNNTLSFFGKQLKLDTEEEISKVIDQIRKHLNLEVLDFRGNTLSVLAGKLIAESLKTRRELKECIWSDMFTGRLKDEIPLVLDALGEALTASGCRLTTLDLSDNAFGAGLSTSLYNFLQSPALYSLENLILNNNGLGLAGKTVGKALCSLIDASKKAGTPLKLKKFVCGRNRLEVESTIALSDAFIKLGTLEEIRLPQNGIRDDGIIALAEAFRMNKKLRIIDINDNFCCPEGAIQISEVLSDLQFIEVLDLGDCVCDDPGVLAIIAELDKINRDCLKKVVLSGNNITSDVIDEIGACFNSPKMCHVKVDISVNMFGKDFDSAKARHGKGNIDFGRRGDDELLSSDEEEEQGAEDASMEEDAFNTSRETVIDRSNLHEASADEMMNDLMNKGFGCMKIEDNQQNSNGNGMVSFLDKSLKLDTAESAEPVVKVIAAASSMKALELRGNTLGIAAGNVIAKALESHPELERCLWSDLFTGRLKNEIPPILEALGKAMMTAGCKIKELDLSDNAFGPIGADALKDLLESPSSFSLEVLKLNNNGLGIGGKQIAKSLTECLRKSIAVGGENRLRLKTFIAGRNRLENPGAHALAATFKALETVEWFDVRQNGIHEEGIRALVAALKHNRNLRYLWLEDNTVLPKGAKALAKTLESWPKLEVLNLSDCLIRDAGCNYIIDHLNPQHHRHLKNVYLCGNELTPPVAKLLIQKWSKFDGLTPKPVLHIHTNSFGDEFSDVAGMAPENVNVGDEDDDLGSLDGDQEEYNSKSSDSEDADLDDDDEDDDEEAEIQIIDNGESQLKLAMDRIDRLDIDFESRFQEDTARVILQLSAPLKSCKMSEPALQRAIEVAENIVRRVESVKRNPIPATTQLVNNIVAQCAGTGVKAETDWGYGADPQVISRLFSELVARGHFKLELALLQRFFPSQ
B3: FIB-1 (protein, UniProt Q22053 1-352)
chain: MGRPEFNRGGGGGGFRGGRGGDRGGSRGGFGGGGRGGYGGGDRGSFGGGDRGGFRGGRGGGDRGGFRGGRGGGDRGGFGGRGSPRGGFGGRGSPRGGRGSPRGGRGGAGGMRGGKTVVVEPHRLGGVFIVKGKEDALATKNMVVGESVYGEKRVSVDDGAGSIEYRVWNPFRSKLAASIMGGLENTHIKPGTKLLYLGAASGTTVSHCSDVVGPEGIVYAVEFSHRSGRDLLGVAKKRPNVVPIVEDARHPHKYRMLVGMVDVIFSDVAQPDQARIVALNAQNFLRNGGHAVISIKANCIDSTAEPEAVFAGEVNKLKEEKFKPLEQVTLEPYERDHAVVVAVYRPVKGKKV
B4: HSP-16.1 (protein, UniProt P34696 1-145)
chain: MSLYHYFRPAQRSVFGDLMRDMAQMERQFTPVCRGSPSESSEIVNNDQKFAINLNVSQFKPEDLKINLDGHTLSIQGEQELKTEHGYSKKSFSRVILLPEDVDVGAVASNLSEDGKLSIEAPKKEAIQGRSIPIQQAPVEQKTSE
B5: PAB-1 (protein, UniProt Q9U302 1-646)
chain: MEMNVAAPAAAVAGAAAPQPGQNQTGSSYTMASLYVGDLHPDVNESILFEKFSAAGPVLSIRVCRDNATRLSLGYAYVNFQQPADAERAMDTMNFEALHGKPMRIMWSQRDPAMRRSGAGNIFIKNLDKVIDNKSIYDTFSLFGNILSCKVAIDEDGFSKGYGFVHFETEEAAQNAIQKVNGMLLAGKKVFVGKFQPRAQRNRELGETAKQFTNVYVKNFGDHYNKETLEKLFAKFGNITSCEVMTVEGKSKGFGFVAFANPEEAETAVQALHDSTIEGTDLKLHVCRAQKKSERHAELKKKHEQHKAERMQKYQGVNLYVKNLDETVDDDGLKKQFESYGNITSAKVMTDENGRSKGFGFVCFEKPEEATSAVTEMNSKMVCSKPLYVAIAQRKEDRRAQLASQYMQRLASMRMHGNVPGAAMYNPTQPGPGYYVANPMQQQRNFAGGQQMVRPGGRWGMQNQYPVQNQYMMAQGPGVYQNRMGRPQNQQGGPRGPPQQYNQVAQGGVRMQGPPRTQNPGVQQQNVPRPPQQQQQQRPAPTGPKAPPQPYQAYQQRPQGIVIGGQEPLTSAMLAAAAPQEQKQLLGERIYALIEKLYPGHKDAGKITGMMLEIDNSELIMMLQDSELFRSKVDEAASVLVSAQKQ
B6: CGH-1 (protein, UniProt Q95YF3 1-430)
chain: MSGAEQQQIVPANNGDENWKAGLNLPAKDRRFKTADVTDTKGVEFEDFCLGRDLLMGIFEKGWEKPSPIQEASIGVALTGQDILARAKNGTGKTGAYCIPVIEKIQPALKAIQAMVIVPTRELALQTSQICVELSKHIQLKVMVTTGGTDLRDDIMRLNGTVHLVIATPGRILDLMEKGVAKMEHCKTLVLDEADKLLSQDFQGILDRLINFLPKERQVMLYSATFPNTVTSFMQKHMHKPYEINLMEELTLLGVTQYYAFVQEKQKVHCLNTLFRKLQINQSIIFCNSTQRVELLAKKITEIGYSCYYIHSKMAQNHRNRVFHDFRQGNCRNLVCSDLLTRGIDIQAVNVVINFDFPRNAETYLHRIGRSGRFGHLGVAINLITYEDRHTLRRIEQELRTRIEPIPKTVDPKLYVADQQLVDAADETTA
B7: CAR-1 (protein, UniProt Q9XW17 1-340)
chain: MSNQTPYIGSKISLISKLDIRYEGILYTVDTNDSTIALAKVRSFGTEKRPTANPVAARDDVYEYIIFKASDIKDLIVCDTPKMANIGGGLPYDPAIISVSSRSAPASDGAPAASAGSSRAGTPSRNSPLGQIIQNQRPGRGGYQQNFQANRGYNNYRGGFAGGYNNQRGHNNYGVPRVNHREKLKFESDFDFEKANEKFQEVLVDNLEKLNIEDKAEPEVEEKKDAAFYDKKTSFFDNISCESLEKAEGKTGRPDWKKERETNQETFGHNAVRSLNYRRGFGGRGRGGNRGYGGYNNGYQHQHQHRGGYNGGYRQNNGGYRRGGYAPRDNQGNTAAAAEQ
B8: EEF-1B.2 (protein, UniProt Q9U2H9 1-263)
chain: MSVEGLLSEVKHFNAHHLDAALGEQLFYGGKRVFSDVKPGTSSGGDHGCKGGKSELKGAIHNAKHAADKALNKEGGEDVSKLREEHSALAKKVDDLASLVAELQLQLSTLRQGQTSSVAAPAAAPAAAKEEAAGDDDFDLFGSEDEEEDEEKKKVVEERLAAYAAKKATKAGPIAKSSVILDVKPWDDETDLGEMEKLVRSIEMDGLVWGGAKLIPIGYGIKKLQIITVIEDLKVSVDDLIEKITGDFEDHVQSVDIVAFNKI

Molecular target: T1, NXF-1::3xFLAG::eGFP (C. elegans)
Assay: affinity purification with mass spectrometry; Anti-FLAG M2 magnetic beads on protein extracts of JCP519 worms expressing NXF-1::3xFLAG::eGFP; N2 WT extracts as negative control; three replicates; competitive elution with 3xFLAG peptide; SDS-PAGE, Coomassie Blue, bands excised, LC-MS/MS

binding, binds:
ABTS-3 (C. elegans (endogenous in worm extract))
ANC-1 (from UniProt Q9N4M4 1-8545)
CSQ-1 (from UniProt Q20203)
CTL-3 (C. elegans (endogenous in worm extract))
HCP-1 (from UniProt O76447)
HRP-2 (C. elegans (endogenous in worm extract))
IMB-3 (from UniProt Q9N5V3)
NPP-9 (C. elegans (endogenous in worm extract))
RAN-1 (from UniProt O17915 1-215)
VIG-1 (from UniProt H2KYR1)
VIT-2 (from UniProt P05690 16-1613)
VIT-4 (from UniProt P18947 16-1603)

Molecular target: T1, NXF-1::3xFLAG::eGFP (C. elegans)
Assay: as above
Remark: another data set of the same source

binding, binds:
B1
B2
B3
B4
B5
B6
B7
B8
